The effect of the compound repeats well; differences between the knockouts mostly do not.
Test system: BT-20
Experiment: relative cell number vs DMSO control (72 h) (% of DMSO); higher = less growth inhibition (more cells)
Description: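 QMAP-Seq: a pool of 5 breast cancer cell lines (ZR-75-1, SKBR3, HCC-38, MDA-MB-231, BT-20), each carrying 12 doxycycline-inducible Cas9 sgRNA perturbations (11 knockouts plus non-targeting sgNT), was treated with compounds for 72 h at four 10-fold doses (10 nM-10 uM or 1 nM-1 uM range). Barcodes were amplified and sequenced, and cell number was interpolated from 293T spike-in standard curves. The result is expressed as % of the median of DMSO wells. Two biological replicates.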

Cc1nc(Nc2n[nH]c3c2CN(C(=O)N[C@H](CN(C)C)c2ccccc2)C3(C)C)c2sccc2n1
Conditions	relative cell number
sgRNA knockout: sgATF3, 10 nM	72.2
sgRNA knockout: sgATF3, 100 nM	53.8
sgRNA knockout: sgATF3, 1000 nM	35.6
sgRNA knockout: sgATF3, 10000 nM	14.1
sgRNA knockout: sgATF4, 10 nM	62.7
sgRNA knockout: sgATF4, 100 nM	56.3
sgRNA knockout: sgATF4, 1000 nM	33.1
sgRNA knockout: sgATF4, 10000 nM	14.2
sgRNA knockout: sgATF6, 10 nM	75.2
sgRNA knockout: sgATF6, 100 nM	52.6
sgRNA knockout: sgATF6, 1000 nM	28.4
sgRNA knockout: sgATF6, 10000 nM	14.7
sgRNA knockout: sgATG7, 10 nM	69.6
sgRNA knockout: sgATG7, 100 nM	62.6
sgRNA knockout: sgATG7, 1000 nM	31.9
sgRNA knockout: sgATG7, 10000 nM	14.7
sgRNA knockout: sgERN1, 10 nM	73.1
sgRNA knockout: sgERN1, 100 nM	57.3
sgRNA knockout: sgERN1, 1000 nM	33.6
sgRNA knockout: sgERN1, 10000 nM	11.6
sgRNA knockout: sgHSF1, 10 nM	87.5
sgRNA knockout: sgHSF1, 100 nM	51.9
sgRNA knockout: sgHSF1, 1000 nM	35.1
sgRNA knockout: sgHSF1, 10000 nM	17.2
sgRNA knockout: sgHSF2, 10 nM	75
sgRNA knockout: sgHSF2, 100 nM	61.2
sgRNA knockout: sgHSF2, 1000 nM	28
sgRNA knockout: sgHSF2, 10000 nM	9.66
sgRNA knockout: sgKEAP1, 10 nM	76.2
sgRNA knockout: sgKEAP1, 100 nM	53.45
sgRNA knockout: sgKEAP1, 1000 nM	36
sgRNA knockout: sgKEAP1, 10000 nM	12.9
sgRNA knockout: sgNFE2L2, 10 nM	81.9
sgRNA knockout: sgNFE2L2, 100 nM	59.7
sgRNA knockout: sgNFE2L2, 1000 nM	34.1
sgRNA knockout: sgNFE2L2, 10000 nM	14.4
sgRNA knockout: sgSLC35F2, 10 nM	67.9
sgRNA knockout: sgSLC35F2, 100 nM	47.6
sgRNA knockout: sgSLC35F2, 1000 nM	32.3
sgRNA knockout: sgSLC35F2, 10000 nM	14.1
sgRNA knockout: sgXBP1, 10 nM	73.9
sgRNA knockout: sgXBP1, 100 nM	56.7
sgRNA knockout: sgXBP1, 1000 nM	27.3
sgRNA knockout: sgXBP1, 10000 nM	12.9

CCCS(=O)(=O)Nc1ccc(F)c(C(=O)c2c[nH]c3ncc(Cl)cc23)c1F [PLX4720]
Conditions	relative cell number
sgRNA knockout: sgATF3, 10 nM	112
sgRNA knockout: sgATF3, 100 nM	85.2
sgRNA knockout: sgATF3, 1000 nM	97.6
sgRNA knockout: sgATF3, 10000 nM	102
sgRNA knockout: sgATF4, 10 nM	119
sgRNA knockout: sgATF4, 100 nM	102
sgRNA knockout: sgATF4, 1000 nM	104
sgRNA knockout: sgATF4, 10000 nM	100
sgRNA knockout: sgATF6, 10 nM	105
sgRNA knockout: sgATF6, 100 nM	96.5
sgRNA knockout: sgATF6, 1000 nM	91.8
sgRNA knockout: sgATF6, 10000 nM	101
sgRNA knockout: sgATG7, 10 nM	104
sgRNA knockout: sgATG7, 100 nM	95.3
sgRNA knockout: sgATG7, 1000 nM	112
sgRNA knockout: sgATG7, 10000 nM	120
sgRNA knockout: sgERN1, 10 nM	104
sgRNA knockout: sgERN1, 100 nM	98.3
sgRNA knockout: sgERN1, 1000 nM	106
sgRNA knockout: sgERN1, 10000 nM	105.4
sgRNA knockout: sgHSF1, 10 nM	100.5
sgRNA knockout: sgHSF1, 100 nM	101
sgRNA knockout: sgHSF1, 1000 nM	96.9
sgRNA knockout: sgHSF1, 10000 nM	112
sgRNA knockout: sgHSF2, 10 nM	113
sgRNA knockout: sgHSF2, 100 nM	74.3
sgRNA knockout: sgHSF2, 1000 nM	109
sgRNA knockout: sgHSF2, 10000 nM	94.3
sgRNA knockout: sgKEAP1, 10 nM	101
sgRNA knockout: sgKEAP1, 100 nM	91.3
sgRNA knockout: sgKEAP1, 1000 nM	96.9
sgRNA knockout: sgKEAP1, 10000 nM	109
sgRNA knockout: sgNFE2L2, 10 nM	99.5
sgRNA knockout: sgNFE2L2, 100 nM	72.6
sgRNA knockout: sgNFE2L2, 1000 nM	86.7
sgRNA knockout: sgNFE2L2, 10000 nM	106
sgRNA knockout: sgSLC35F2, 10 nM	105
sgRNA knockout: sgSLC35F2, 100 nM	89
sgRNA knockout: sgSLC35F2, 1000 nM	96.5
sgRNA knockout: sgSLC35F2, 10000 nM	109
sgRNA knockout: sgXBP1, 10 nM	103
sgRNA knockout: sgXBP1, 100 nM	98.7
sgRNA knockout: sgXBP1, 1000 nM	102
sgRNA knockout: sgXBP1, 10000 nM	106

C[C@H]1CCC/C=C/[C@@H]2C[C@H](O)C[C@H]2[C@H](O)/C=C/C(=O)O1 [BrefeldinA]
Conditions	relative cell number
sgRNA knockout: sgATF3, 10 nM	90.6
sgRNA knockout: sgATF3, 100 nM	30.4
sgRNA knockout: sgATF3, 1000 nM	23.6
sgRNA knockout: sgATF3, 10000 nM	31
sgRNA knockout: sgATF4, 10 nM	92.5
sgRNA knockout: sgATF4, 100 nM	31.1
sgRNA knockout: sgATF4, 1000 nM	25.5
sgRNA knockout: sgATF4, 10000 nM	33.3
sgRNA knockout: sgATF6, 10 nM	86.8
sgRNA knockout: sgATF6, 100 nM	29.2
sgRNA knockout: sgATF6, 1000 nM	30.8
sgRNA knockout: sgATF6, 10000 nM	26.7
sgRNA knockout: sgATG7, 10 nM	90.8
sgRNA knockout: sgATG7, 100 nM	25.5
sgRNA knockout: sgATG7, 1000 nM	22.5
sgRNA knockout: sgATG7, 10000 nM	30.9
sgRNA knockout: sgERN1, 10 nM	81.6
sgRNA knockout: sgERN1, 100 nM	25.3
sgRNA knockout: sgERN1, 1000 nM	25.3
sgRNA knockout: sgERN1, 10000 nM	27.5
sgRNA knockout: sgHSF1, 10 nM	91.2
sgRNA knockout: sgHSF1, 100 nM	26.2
sgRNA knockout: sgHSF1, 1000 nM	27
sgRNA knockout: sgHSF1, 10000 nM	30
sgRNA knockout: sgHSF2, 10 nM	77.61
sgRNA knockout: sgHSF2, 100 nM	29.1
sgRNA knockout: sgHSF2, 1000 nM	23.5
sgRNA knockout: sgHSF2, 10000 nM	33.5
sgRNA knockout: sgKEAP1, 10 nM	92.9
sgRNA knockout: sgKEAP1, 100 nM	24.9
sgRNA knockout: sgKEAP1, 1000 nM	29.1
sgRNA knockout: sgKEAP1, 10000 nM	38.8
sgRNA knockout: sgNFE2L2, 10 nM	88.2
sgRNA knockout: sgNFE2L2, 100 nM	32.1
sgRNA knockout: sgNFE2L2, 1000 nM	24.6
sgRNA knockout: sgNFE2L2, 10000 nM	31
sgRNA knockout: sgSLC35F2, 10 nM	89
sgRNA knockout: sgSLC35F2, 100 nM	31
sgRNA knockout: sgSLC35F2, 1000 nM	26.8
sgRNA knockout: sgSLC35F2, 10000 nM	28.3
sgRNA knockout: sgXBP1, 10 nM	80.1
sgRNA knockout: sgXBP1, 100 nM	30.6
sgRNA knockout: sgXBP1, 1000 nM	23.9
sgRNA knockout: sgXBP1, 10000 nM	30.9
